# Some of the results follow. Many values rest on one well or one pass, so single values are uncertain.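 The apoptosis fraction was the count of cleaved-PARP antibody-stained nuclei relative to all DNA-stained nuclei, imaged in 1,536-well plates. Screening doses were set so most cells survived, and baseline and induced cleaved-PARP levels vary greatly across cell lines.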
# Tested on: CBRC008 (line from a melanoma biopsy)
# Test: cleaved PARP positive nuclei fraction relative to DMSO control; melanoma cells; higher = more apoptosis
# Conditions: library dose: low library concentration; 72 h
row,Compound,cleaved PARP positive nuclei fraction [%]
1,"C[C@@H](N)c1ccc(C(=O)Nc2ccnc3[nH]ccc23)cc1 + CC(C)C[C@H](NC(=O)[C@H](Cc1ccccc1)NC(=O)c1cnccn1)B(O)O [Bortezomib] (first compound 0.4 µM, partner dose 0.001 µM)",553
2,"C[C@]1(O)C[C@@H](c2nc(-c3ccc4ccc(-c5ccccc5)nc4c3)c3c(N)nccn32)C1 + CS(=O)(=O)CCNCc1ccc(-c2ccc3ncnc(Nc4ccc(OCc5cccc(F)c5)c(Cl)c4)c3c2)o1 [lapatinib] (first compound 0.4 µM, partner dose 0.8 µM)",177
3,"Cn1sc(=O)n(Cc2ccccc2)c1=O + CNC(=O)c1cc(Oc2ccc(NC(=O)Nc3ccc(Cl)c(C(F)(F)F)c3)cc2)ccn1 [sorafenib] (first compound 0.4 µM, partner dose 0.4 µM)",72.4
4,"CN(c1ncccc1CNc1nc(Nc2ccc3c(c2)CC(=O)N3)ncc1C(F)(F)F)S(C)(=O)=O + CS(=O)(=O)CCNCc1ccc(-c2ccc3ncnc(Nc4ccc(OCc5cccc(F)c5)c(Cl)c4)c3c2)o1 [lapatinib] (first compound 0.08 µM, partner dose 0.8 µM)",162
5,"CCCCCCCCc1ccc(CCC(N)(CO)CO)cc1 [fingolimod] + CC(=O)O[C@@]12CO[C@@H]1C[C@H](O)[C@@]1(C)C(=O)[C@H](O)C3=C(C)[C@@H](OC(=O)[C@H](O)[C@@H](NC(=O)OC(C)(C)C)c4ccccc4)C[C@@](O)([C@@H](OC(=O)c4ccccc4)[C@H]21)C3(C)C [Docetaxel] (first compound 2 µM, partner dose 0.0001 µM)",168
6,"CCCCCCCCc1ccc(CCC(N)(CO)CO)cc1 [fingolimod] + COCC[n+]1c2c(n(Cc3cnccn3)c1C)C(=O)c1ccccc1C2=O [YM155] (first compound 2 µM, partner dose 0.0004 µM)",24.5
7,"NC1(c2ccc(-c3nc4ccn5c(=O)[nH]nc5c4cc3-c3ccccc3)cc2)CCC1 + C[C@@H](Oc1cc(-c2cnn(C3CCNCC3)c2)cnc1N)c1c(Cl)ccc(F)c1Cl [Crizotinib] (first compound 0.4 µM, partner dose 0.2 µM)",57.2
8,"C[C@]1(O)C[C@@H](c2nc(-c3ccc4ccc(-c5ccccc5)nc4c3)c3c(N)nccn32)C1 + Cc1cc(Nc2cc(N3CCN(C)CC3)nc(/C=C/c3ccccc3)n2)n[nH]1 [ENMD2076] (first compound 0.4 µM, partner dose 0.04 µM)",75.4
9,"Cn1sc(=O)n(Cc2ccccc2)c1=O + C[C@@H](Oc1cc(-c2cnn(C3CCNCC3)c2)cnc1N)c1c(Cl)ccc(F)c1Cl [Crizotinib] (first compound 0.4 µM, partner dose 0.2 µM)",39.6
10,"NC(=O)c1ccc(N(C(N)=O)c2c(F)cccc2F)nc1-c1ccc(F)cc1F + CCCCCCCCc1ccc(CCC(N)(CO)CO)cc1 [fingolimod] (first compound 0.4 µM, partner dose 2 µM)",56.1
11,"NC1(c2ccc(-c3nc4ccn5c(=O)[nH]nc5c4cc3-c3ccccc3)cc2)CCC1 + CO[C@H]1C[C@@H]2CC[C@@H](C)[C@@](O)(O2)C(=O)C(=O)N2CCCC[C@H]2C(=O)O[C@H]([C@H](C)C[C@@H]2CC[C@@H](OCCO)[C@H](OC)C2)CC(=O)[C@H](C)/C=C(\C)[C@@H](O)[C@@H](OC)C(=O)[C@H](C)C[C@H](C)/C=C/C=C/C=C/1C [everolimus] (first compound 0.4 µM, partner dose 0.02 µM)",270

# Part of the list above, bar-delimited:
row | Compound | cleaved PARP positive nuclei fraction [%]
3 | Cn1sc(=O)n(Cc2ccccc2)c1=O + CNC(=O)c1cc(Oc2ccc(NC(=O)Nc3ccc(Cl)c(C(F)(F)F)c3)cc2)ccn1 [sorafenib] (first compound 0.4 µM, partner dose 0.4 µM) | 72.4
4 | CN(c1ncccc1CNc1nc(Nc2ccc3c(c2)CC(=O)N3)ncc1C(F)(F)F)S(C)(=O)=O + CS(=O)(=O)CCNCc1ccc(-c2ccc3ncnc(Nc4ccc(OCc5cccc(F)c5)c(Cl)c4)c3c2)o1 [lapatinib] (first compound 0.08 µM, partner dose 0.8 µM) | 162
